Source: the supplement of paper PMC10331698
± gives the standard deviation of the averaged measurements. Most values lie at the level of the controls, where differences are scatter.

Tests used:
Experiment in all cases: level (log10 ratio to DMSO vehicle control); higher = higher biomarker level / cell amount than vehicle control
[1] = compound: C=C(C)C(=O)OCC(F)(F)C(F)(F)C(F)(F)C(F)(F)C(F)(F)C(F)(F)C(F)(F)F; details: in DMSO
Experimental: (§1)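 BioMAP Diversity Plus panel of 12 human primary cell co-culture systems (3C, 4H, LPS, SAg, BT, BF4T, BE3C, CASM3C, HDF3CGF, KF3CT, MyoF, Mphg). Compounds were added 1 h before stimulation and left for 24 h (MyoF 48 h; BT 72 h for soluble read-outs or 6 d for IgG). Biomarkers were read by ELISA, cytotoxicity by SRB, PBMC viability and proliferation by Alamar Blue. Each well value was divided by the mean of 8 DMSO control wells on the same plate and log10 transformed; duplicate blinded samples were tested at 4 concentrations.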

[2] = compound: C=CC(=O)OCC(F)(F)C(F)(F)C(F)(F)C(F)(F)C(F)(F)C(F)(F)C(F)(F)F [1H,1H-Perfluorooctyl acrylate]; details: 2200 nM; in DMSO
Experimental: as §1

[3] = compound: C=CC(F)(F)C(F)(F)C(F)(F)C(F)(F)C(F)(F)C(F)(F)C(F)(F)C(F)(F)C=C [1,8-Divinylperfluorooctane]; details: in DMSO
Experimental: as §1

[4] = compound: COC(=O)C(F)(F)C(F)(F)OC(F)(C(F)(F)F)C(F)(F)OC(F)=C(F)F [Methyl perfluoro(3-(1-ethenyloxypropan-2-yloxy)propanoate)]; details: in DMSO
Experimental: as §1

[5] = compound: CO[Si](C)(CCC(F)(F)C(F)(F)C(F)(F)C(F)(F)C(F)(F)C(F)(F)F)OC [Dimethoxymethyl((perfluorohexyl)ethyl)silane]; details: in DMSO
Experimental: as §1

[6] = compound: FC(F)(F)C(F)(F)C(F)(F)CC1CO1 [1H,1H-Heptafluorobutyl epoxide]; details: 2200 nM; in DMSO
Experimental: as §1

[7] = compound: FC(F)(F)C(F)(F)C(F)(F)CI [Heptafluorobutyl iodide]; details: 2200 nM; in DMSO
Experimental: as §1

[8] = compound: NC(=O)C(F)(F)C(F)(F)C(F)(F)C(F)F; details: in DMSO
Experimental: as §1

[9] = compound: NC(=O)C(F)(F)C(F)(F)F [Pentafluoropropionamide]; details: 2200 nM; in DMSO
Experimental: as §1

[10] = compound: NS(=O)(=O)C(F)(F)C(F)(F)C(F)(F)C(F)(F)C(F)(F)C(F)(F)C(F)(F)C(F)(F)F [Perfluorooctanesulfonamide]; details: in DMSO
Experimental: as §1

[11] = compound: O=C(O)C(F)(F)C(F)(F)C(F)F [4H-Perfluorobutanoic acid]; details: in DMSO
Experimental: as §1

[12] = compound: O=P(O)(O)CCC(F)(F)C(F)(F)C(F)(F)C(F)(F)C(F)(F)C(F)(F)F [2-(Perfluorohexyl)ethylphosphonic acid]; details: 2200 nM; in DMSO
Experimental: as §1

[13] = compound: O=S(=O)(F)C(F)(F)C(F)(F)C(F)(F)C(F)(F)C(F)(F)C(F)(F)C(F)(F)C(F)(F)F [Perfluorooctanesulfonyl fluoride]; details: 2200 nM; in DMSO
Experimental: as §1

[14] = compound: O=S(=O)(O)C(F)(F)C(F)(F)C(F)(F)C(F)(F)C(F)(F)C(F)(F)C(F)(F)C(F)(F)F [Perfluorooctanesulfonic acid]; details: 2200 nM; in DMSO
Experimental: as §1

[15] = compound: O=S(=O)(O)C(F)(F)C(F)(F)C(F)(F)C(F)(F)C(F)(F)C(F)(F)C(F)(F)C(F)(F)F [Potassium perfluorooctanesulfonate]; details: 2200 nM; in DMSO
Experimental: as §1

[16] = compound: O=S(=O)(OCC(F)(F)F)C(F)(F)C(F)(F)C(F)(F)C(F)(F)F [2,2,2-Trifluoroethyl perfluorobutanesulfonate]; details: 2200 nM; in DMSO
Experimental: as §1

[17] = compound: OCC(F)(F)C(F)(F)C(F)(F)C(F)(F)C(F)(F)C(F)F [1H,1H,7H-Dodecafluoro-1-heptanol]; details: 2200 nM; in DMSO
Experimental: as §1

[18] = compound: OCCCCC(F)(F)C(F)(F)C(F)(F)C(F)(F)F [4:4 Fluorotelomer alcohol]; details: 2200 nM; in DMSO
Experimental: as §1

| Test System | level (log10) ([1]; 740 nM) | level (log10) ([1]; 2200 nM) | level (log10) [2] | level (log10) ([3]; 740 nM) | level (log10) ([3]; 2200 nM) | level (log10) ([4]; 740 nM) | level (log10) ([4]; 2200 nM) | level (log10) ([5]; 740 nM) | level (log10) ([5]; 2200 nM) | level (log10) [6] | level (log10) [7] | level (log10) ([8]; 2200 nM) | level (log10) ([8]; 6700 nM) | level (log10) ([8]; 20000 nM) | level (log10) ([8]; 60000 nM) | level (log10) [9] | level (log10) ([10]; 2200 nM) | level (log10) ([10]; 6700 nM) | level (log10) ([10]; 20000 nM) | level (log10) ([11]; 2200 nM) | level (log10) ([11]; 6700 nM) | level (log10) ([11]; 20000 nM) | level (log10) ([11]; 60000 nM) | level (log10) [12] | level (log10) [13] | level (log10) [14] | level (log10) [15] | level (log10) [16] | level (log10) [17] | level (log10) [18] |
| --- | --- | --- | --- | --- | --- | --- | --- | --- | --- | --- | --- | --- | --- | --- | --- | --- | --- | --- | --- | --- | --- | --- | --- | --- | --- | --- | --- | --- | --- | --- |
| BE3C:MMP-9 | -0.0085 ± 0.019 | -0.0145 ± 0.0035 | 0.003 ± 0.037 | 0.0045 ± 0.04 | -0.014 ± 0.047 | -0.0045 ± 0.047 | -0.0285 ± 0.047 | 0.0045 ± 0.00071 | -0.0265 ± 0.012 | -0.0145 ± 0.005 | -0.0025 ± 0.019 | 0.0065 ± 0.03 | -0.007 ± 0.0014 | -0.0045 ± 0.0092 | 0.0095 ± 0.023 | 0.028 ± 0.03 | -0.052 ± 0.038 | -0.101 ± 0.016 | -0.131 ± 0.0014 | -0.0215 ± 0.029 | -0.0105 ± 0.019 | 0.02 ± 0.023 | -0.009 ± 0.02 | 0.0045 ± 0.039 | -0.003 ± 0.018 | -0.001 ± 0.028 | -0.008 ± 0.062 | -0.034 ± 0.0028 | -0.003 ± 0.0071 | 0.012 |
| BE3C:CD54/ICAM-1 | -0.0005 ± 0.015 | 0.0045 ± 0.0092 | 0.017 | 0.0055 ± 0.028 | 0.0045 ± 0.0064 | -0.0005 ± 0.035 | -0.014 ± 0.011 | -0.0195 ± 0.005 | -0.0125 ± 0.0035 | 0.0045 ± 0.0035 | 0.007 | -0.005 ± 0.0071 | -0.006 ± 0.0042 | -0.002 ± 0.0042 | 0.0155 ± 0.016 | -0.017 ± 0.0014 | 0.0045 ± 0.0064 | -0.008 ± 0.016 | -0.001 ± 0.018 | 0.003 ± 0.023 | -0.0085 ± 0.0021 | -0.0245 ± 0.00071 | 0.0125 ± 0.033 | 0.0125 ± 0.021 | 0.007 ± 0.03 | 0.001 ± 0.02 | 0.013 ± 0.03 | 0.0015 ± 0.012 | 0.0005 ± 0.0092 | 0.011 ± 0.052 |
| BE3C:CXCL10/IP-10 | 0.001 ± 0.011 | 0.0025 ± 0.013 | 0.045 ± 0.0099 | 0 | 0 ± 0.0014 | 0.024 ± 0.02 | 0.0075 ± 0.012 | 0.007 ± 0.0042 | -0.001 | -0.0105 ± 0.018 | -0.002 ± 0.0071 | 0.003 ± 0.0042 | 0.0025 ± 0.0064 | -0.0015 ± 0.016 | 0.007 ± 0.013 | -0.007 ± 0.0057 | -0.03 ± 0.0085 | -0.142 ± 0.0078 | -0.414 ± 0.0028 | 0 ± 0.023 | -0.006 ± 0.021 | -0.001 ± 0.0099 | 0.017 ± 0.021 | -0.016 ± 0.014 | 0.023 ± 0.035 | 0.0025 ± 0.0078 | -0.0095 ± 0.0078 | 0.026 ± 0.013 | 0.014 ± 0.011 | 0.002 ± 0.0071 |
| 4H:CCL26/Eotaxin-3 | 0.0135 ± 0.016 | 0.035 ± 0.041 | 0.0075 ± 0.029 | 0 ± 0.017 | 0.012 ± 0.011 | 0.0075 ± 0.011 | 0.0135 ± 0.0021 | 0.019 ± 0.062 | -0.001 ± 0.033 | 0.004 ± 0.014 | 0.0245 ± 0.049 | 0.01 ± 0.035 | 0.0095 ± 0.037 | 0.0315 ± 0.029 | 0.0275 ± 0.016 | 0.022 ± 0.0014 | 0.0025 ± 0.00071 | -0.0145 ± 0.013 | -0.03 ± 0.042 | -0.0115 ± 0.005 | -0.0165 ± 0.012 | -0.008 ± 0.011 | 0.008 ± 0.0085 | -0.0105 ± 0.12 | 0.0005 ± 0.0078 | 0.0085 ± 0.044 | 0.0215 ± 0.037 | -0.0005 ± 0.013 | 0.019 ± 0.02 | 0.0325 ± 0.053 |
| KF3CT:uPA | -0.006 | 0.0095 ± 0.0035 | 0.005 ± 0.0057 | -0.0005 ± 0.012 | -0.0185 ± 0.0035 | -0.011 ± 0.013 | 0.012 ± 0.0099 | -0.014 ± 0.0071 | -0.005 ± 0.013 | -0.022 ± 0.021 | -0.006 ± 0.033 | 0.0285 ± 0.019 | 0.008 ± 0.025 | -0.0125 ± 0.028 | -0.008 ± 0.021 | 0.0075 ± 0.022 | 0.0055 ± 0.011 | 0.0165 ± 0.0064 | -0.093 ± 0.0014 | 0.0115 ± 0.0035 | 0.0125 ± 0.028 | 0.0275 ± 0.0064 | 0.007 ± 0.035 | 0.014 ± 0.013 | 0.0025 ± 0.011 | -0.0065 ± 0.011 | 0.001 ± 0.031 | 0.006 ± 0.014 | -0.0025 ± 0.00071 | -0.0015 ± 0.00071 |
| MyoF:bFGF | -0.005 ± 0.024 | -0.0045 ± 0.012 | 0.0065 ± 0.021 | 0.002 ± 0.023 | -0.002 ± 0.0071 | 0.0065 ± 0.0092 | 0.0125 ± 0.0064 | -0.0015 ± 0.013 | -0.006 | -0.0015 ± 0.0078 | 0.0175 ± 0.026 | -0.0005 ± 0.0092 | -0.0125 ± 0.005 | -0.008 ± 0.017 | -0.0155 ± 0.005 | 0.011 ± 0.013 | 0.011 ± 0.0071 | 0.0115 ± 0.00071 | -0.0145 ± 0.0021 | 0.0125 ± 0.021 | -0.023 ± 0.016 | -0.007 ± 0.02 | 0.0045 ± 0.012 | -0.0205 ± 0.021 | 0.01 ± 0.0014 | 0.0065 ± 0.03 | -0.005 ± 0.0028 | -0.008 ± 0.0028 | -0.0065 ± 0.0035 | 0.0035 ± 0.0035 |
| MyoF:SRB | 0.003 ± 0.0028 | -0.001 ± 0.0099 | 0.0095 ± 0.015 | 0.011 ± 0.0028 | 0.012 ± 0.0099 | 0.0015 ± 0.005 | -0.015 ± 0.011 | 0.0055 ± 0.012 | 0.012 ± 0.013 | -0.0125 ± 0.0078 | 0.0005 ± 0.0064 | -0.0045 ± 0.011 | -0.006 ± 0.0042 | -0.0175 ± 0.012 | -0.003 | 0.004 | -0.0005 ± 0.0021 | -0.0135 ± 0.0035 | -0.136 ± 0.0021 | 0.004 ± 0.0028 | 0.0005 ± 0.013 | 0.002 ± 0.0085 | 0.0055 ± 0.0021 | 0.005 ± 0.011 | -0.001 ± 0.0085 | 0.009 ± 0.021 | 0.0075 ± 0.029 | -0.0085 ± 0.019 | 0.005 ± 0.0042 | 0.0055 ± 0.005 |
